Results are given in words; binding and its absence hold for the method and conditions named. In cells and extracts the contact can be indirect. Some binding calls cover weakened binding; strength is not graded here. For some assays here: Tags and fused reporters may be left off the sequences shown.

The chains behind the UniProt entries cited, without tags or fusion partners. Where a name states a change or a piece, a line headed by the entry shows the natural chain unless it says otherwise. A line that says so, or that is headed by a name, gives the form on record, which may keep a tag or linker. Residues count along the entry.
UniProt P25054: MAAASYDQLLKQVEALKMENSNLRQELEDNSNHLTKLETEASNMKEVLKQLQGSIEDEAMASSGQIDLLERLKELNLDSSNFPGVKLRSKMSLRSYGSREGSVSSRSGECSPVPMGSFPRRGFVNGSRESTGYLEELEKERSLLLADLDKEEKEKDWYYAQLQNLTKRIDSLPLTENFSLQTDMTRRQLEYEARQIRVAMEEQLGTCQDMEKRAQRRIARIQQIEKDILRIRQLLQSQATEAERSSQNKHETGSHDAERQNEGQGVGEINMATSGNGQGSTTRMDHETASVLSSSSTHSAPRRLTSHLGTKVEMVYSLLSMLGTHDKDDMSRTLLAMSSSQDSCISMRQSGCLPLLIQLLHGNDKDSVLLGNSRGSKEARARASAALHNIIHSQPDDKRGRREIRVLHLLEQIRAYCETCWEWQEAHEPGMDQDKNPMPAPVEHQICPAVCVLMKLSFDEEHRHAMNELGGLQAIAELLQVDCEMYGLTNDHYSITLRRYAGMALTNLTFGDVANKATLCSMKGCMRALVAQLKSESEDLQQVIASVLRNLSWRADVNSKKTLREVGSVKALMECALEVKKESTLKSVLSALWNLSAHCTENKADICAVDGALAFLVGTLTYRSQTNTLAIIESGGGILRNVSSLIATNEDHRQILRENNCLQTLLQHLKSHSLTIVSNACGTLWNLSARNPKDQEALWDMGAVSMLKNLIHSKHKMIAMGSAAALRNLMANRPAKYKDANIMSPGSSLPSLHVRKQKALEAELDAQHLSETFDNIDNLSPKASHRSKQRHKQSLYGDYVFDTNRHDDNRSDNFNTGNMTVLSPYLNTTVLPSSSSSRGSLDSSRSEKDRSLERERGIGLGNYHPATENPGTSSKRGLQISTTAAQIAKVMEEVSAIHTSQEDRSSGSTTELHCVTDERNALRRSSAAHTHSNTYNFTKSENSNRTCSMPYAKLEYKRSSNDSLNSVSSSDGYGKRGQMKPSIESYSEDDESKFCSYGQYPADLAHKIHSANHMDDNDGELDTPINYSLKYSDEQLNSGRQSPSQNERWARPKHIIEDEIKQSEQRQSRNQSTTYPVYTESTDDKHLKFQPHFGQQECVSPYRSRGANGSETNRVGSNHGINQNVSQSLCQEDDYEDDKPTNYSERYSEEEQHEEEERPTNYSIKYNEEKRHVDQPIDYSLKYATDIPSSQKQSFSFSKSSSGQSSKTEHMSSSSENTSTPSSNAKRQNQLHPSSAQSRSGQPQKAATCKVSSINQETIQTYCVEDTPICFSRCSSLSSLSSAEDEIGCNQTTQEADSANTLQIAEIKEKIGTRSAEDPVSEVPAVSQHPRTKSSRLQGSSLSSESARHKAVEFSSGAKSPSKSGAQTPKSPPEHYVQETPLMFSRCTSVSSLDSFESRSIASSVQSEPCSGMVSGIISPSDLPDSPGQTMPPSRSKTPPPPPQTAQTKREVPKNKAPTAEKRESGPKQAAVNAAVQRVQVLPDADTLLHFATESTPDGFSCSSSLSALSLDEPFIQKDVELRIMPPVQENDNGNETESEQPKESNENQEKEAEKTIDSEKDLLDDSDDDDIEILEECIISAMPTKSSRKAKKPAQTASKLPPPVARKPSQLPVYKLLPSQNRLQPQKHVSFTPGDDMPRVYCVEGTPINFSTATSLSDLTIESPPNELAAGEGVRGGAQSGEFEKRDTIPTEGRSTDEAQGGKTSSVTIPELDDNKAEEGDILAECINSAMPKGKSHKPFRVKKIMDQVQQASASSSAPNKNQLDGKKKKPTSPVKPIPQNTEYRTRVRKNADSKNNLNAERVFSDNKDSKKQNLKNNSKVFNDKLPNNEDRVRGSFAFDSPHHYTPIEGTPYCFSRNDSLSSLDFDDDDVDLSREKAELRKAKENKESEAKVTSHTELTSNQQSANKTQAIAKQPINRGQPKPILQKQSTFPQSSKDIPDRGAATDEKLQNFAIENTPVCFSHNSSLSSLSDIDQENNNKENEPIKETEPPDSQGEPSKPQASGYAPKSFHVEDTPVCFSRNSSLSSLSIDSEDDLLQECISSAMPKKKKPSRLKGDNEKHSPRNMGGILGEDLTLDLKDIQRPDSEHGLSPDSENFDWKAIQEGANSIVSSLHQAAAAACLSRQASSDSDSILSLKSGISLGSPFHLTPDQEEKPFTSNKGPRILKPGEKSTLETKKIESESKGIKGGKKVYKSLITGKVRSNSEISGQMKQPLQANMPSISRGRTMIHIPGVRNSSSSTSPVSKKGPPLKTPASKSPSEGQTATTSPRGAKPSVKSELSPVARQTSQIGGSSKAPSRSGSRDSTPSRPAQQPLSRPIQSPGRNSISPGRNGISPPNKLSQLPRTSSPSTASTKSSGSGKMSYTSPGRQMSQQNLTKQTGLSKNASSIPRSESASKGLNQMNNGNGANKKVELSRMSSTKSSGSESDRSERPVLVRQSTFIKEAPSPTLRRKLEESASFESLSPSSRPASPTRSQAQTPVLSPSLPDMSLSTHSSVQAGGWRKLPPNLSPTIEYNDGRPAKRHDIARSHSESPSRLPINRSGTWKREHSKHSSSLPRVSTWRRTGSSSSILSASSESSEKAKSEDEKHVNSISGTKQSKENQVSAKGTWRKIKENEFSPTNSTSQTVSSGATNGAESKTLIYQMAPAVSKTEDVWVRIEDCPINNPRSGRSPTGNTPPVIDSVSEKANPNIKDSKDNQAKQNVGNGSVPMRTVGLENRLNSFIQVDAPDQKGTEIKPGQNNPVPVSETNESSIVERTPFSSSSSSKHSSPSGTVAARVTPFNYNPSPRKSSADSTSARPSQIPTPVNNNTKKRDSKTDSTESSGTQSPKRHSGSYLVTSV
FLAG-tagged APC (303–876): residues 303-876 of P25054

The source of these data is paper PMC9402538, “Rational design of a sensitivity-enhanced tracer for discovering efficient APC–Asef inhibitors” (Nature Communications, 2022).

The target in experiment [1] is FLAG-tagged APC (303–876) (UniProt P25054). The experiment in a line: co-IP; HEK293T lysate with FLAG-APC (303–876) and HA-Asef (170–632), NP-40 buffer; lysate treated with DMSO, MAI-203 (25 μM) or MAI-516 (0.2, 1, 5 μM) for 2 h at 4 °C, then anti-FLAG M2 gel; anti-HA blot.
In experiment [2] the target is endogenous WT full-length APC of RKO cells (human (endogenous in RKO)) (UniProt P25054). The experiment in a line: co-IP; endogenous proteins of SW480, DLD1 and RKO cells treated with MAIT-516 or MAIT-203 for 48 h; anti-APC antibody overnight and protein A/G agarose; anti-Asef blot.

B1: hemagglutinin (HA)-tagged Asef (170–632) (domain or fragment, UniProt Q9NR80 170-632)
chain: SSSHHYSHPGGGGEQLAINELISDGSVVCAEALWDHVTMDDQELGFKAGDVIEVMDATNREWWWGRVADGEGWFPASFVRLRVNQDEPADDDAPLAGNSGAEDGGAEAQSSKDQMRTNVINEILSTERDYIKHLRDICEGYVRQCRKRADMFSEEQLRTIFGNIEDIYRCQKAFVKALEQRFNRERPHLSELGACFLEHQADFQIYSEYCNNHPNACVELSRLTKLSKYVYFFEACRLLQKMIDISLDGFLLTPVQKICKYPLQLAELLKYTHPQHRDFKDVEAALHAMKNVAQLINERKRRLENIDKIAQWQSSIEDWEGEDLLVRSSELIYSGELTRVTQPQAKSQQRMFFLFDHQLIYCKKDLLRRDVLYYKGRLDMDGLEVVDLEDGKDRDLHVSIKNAFRLHRGATGDSHLLCTRKPEQKQRWLKAFAREREQVQLDQETGFSITELQRKQAMLNASK
As for B1, the binding entry in experiment [1] is recorded as “binds”.

B2: endogenous Asef (protein, UniProt Q9NR80 1-690)
chain: MPWEEPAGEKPSCSHSQKAFHMEPAQKPCFTTDMVTWALLCISAETVRGEAPSQPRGIPHRSPVSVDDLWLEKTQRKKLQKQAHVERRLHIGAVHKDGVKCWRKTIITSPESLNLPRRSHPLSQSAPTGLNHMGWPEHTPGTAMPDGALDTAVCADEVGSEEDLYDDLHSSSHHYSHPGGGGEQLAINELISDGSVVCAEALWDHVTMDDQELGFKAGDVIEVMDATNREWWWGRVADGEGWFPASFVRLRVNQDEPADDDAPLAGNSGAEDGGAEAQSSKDQMRTNVINEILSTERDYIKHLRDICEGYVRQCRKRADMFSEEQLRTIFGNIEDIYRCQKAFVKALEQRFNRERPHLSELGACFLEHQADFQIYSEYCNNHPNACVELSRLTKLSKYVYFFEACRLLQKMIDISLDGFLLTPVQKICKYPLQLAELLKYTHPQHRDFKDVEAALHAMKNVAQLINERKRRLENIDKIAQWQSSIEDWEGEDLLVRSSELIYSGELTRVTQPQAKSQQRMFFLFDHQLIYCKKDLLRRDVLYYKGRLDMDGLEVVDLEDGKDRDLHVSIKNAFRLHRGATGDSHLLCTRKPEQKQRWLKAFAREREQVQLDQETGFSITELQRKQAMLNASKQQVTGKPKAVGRPCYLTRQKHPALPSNRPQQQVLVLAEPRRKPSTFWHSISRLAPFRK
Consider B2, for which, in experiment [2], the binding entry is recorded as “binds”.
